The values that follow come from paper PMC9248129.

Chains of the proteins cited; added tags and fusions are not shown.
UniProt O43791: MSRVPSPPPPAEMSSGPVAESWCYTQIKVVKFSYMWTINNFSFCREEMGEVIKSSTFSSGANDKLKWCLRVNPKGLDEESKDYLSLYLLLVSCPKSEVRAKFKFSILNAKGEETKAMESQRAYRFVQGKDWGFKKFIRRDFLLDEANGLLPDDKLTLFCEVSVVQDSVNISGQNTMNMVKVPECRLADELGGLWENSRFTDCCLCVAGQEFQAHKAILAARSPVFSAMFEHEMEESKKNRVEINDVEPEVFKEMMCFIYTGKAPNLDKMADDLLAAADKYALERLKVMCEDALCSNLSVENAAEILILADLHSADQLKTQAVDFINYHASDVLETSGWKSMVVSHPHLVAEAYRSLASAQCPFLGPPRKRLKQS
UniProt Q13111: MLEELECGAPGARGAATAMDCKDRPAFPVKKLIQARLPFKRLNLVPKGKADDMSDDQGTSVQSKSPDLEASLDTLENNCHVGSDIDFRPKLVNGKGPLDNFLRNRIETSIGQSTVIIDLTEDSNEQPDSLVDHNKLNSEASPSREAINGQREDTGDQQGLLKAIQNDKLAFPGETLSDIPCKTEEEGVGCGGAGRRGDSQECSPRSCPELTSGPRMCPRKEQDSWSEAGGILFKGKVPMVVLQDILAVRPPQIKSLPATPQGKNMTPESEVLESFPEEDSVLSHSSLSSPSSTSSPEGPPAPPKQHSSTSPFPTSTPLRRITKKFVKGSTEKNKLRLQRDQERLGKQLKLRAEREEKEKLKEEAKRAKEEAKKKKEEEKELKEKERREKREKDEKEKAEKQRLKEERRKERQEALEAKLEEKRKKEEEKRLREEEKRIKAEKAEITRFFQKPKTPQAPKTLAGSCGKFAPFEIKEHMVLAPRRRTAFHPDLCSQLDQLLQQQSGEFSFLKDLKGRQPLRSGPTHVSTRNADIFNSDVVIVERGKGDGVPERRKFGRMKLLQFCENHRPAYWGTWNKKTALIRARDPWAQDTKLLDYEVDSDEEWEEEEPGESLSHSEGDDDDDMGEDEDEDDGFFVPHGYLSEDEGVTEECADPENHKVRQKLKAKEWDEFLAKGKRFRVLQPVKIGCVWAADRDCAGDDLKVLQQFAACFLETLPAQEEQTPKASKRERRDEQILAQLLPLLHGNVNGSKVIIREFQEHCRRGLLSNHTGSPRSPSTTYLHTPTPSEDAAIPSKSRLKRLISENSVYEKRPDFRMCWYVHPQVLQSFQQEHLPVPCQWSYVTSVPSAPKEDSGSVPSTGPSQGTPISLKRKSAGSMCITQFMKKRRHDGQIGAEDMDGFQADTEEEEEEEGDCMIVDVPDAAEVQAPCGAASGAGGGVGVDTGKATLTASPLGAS

The assay deals with Speckle-Type Poz Protein (SPOP) (human (endogenous in U2932)) (UniProt O43791). Description: co-IP; U2932 cells, endogenous proteins; precipitated with IgG or anti-SPOP antibody, detected by western blotting.

These are yes or no findings as the source states them, for the method shown. In cells and extracts the contact can be indirect. Some binding calls cover weakened binding; strength is not graded here.

Consider CHAF1A (from UniProt Q13111 1-956), for which the binding result is reported as “binds”.
